# Laboratory results: article doi:10.1101/2023.03.03.531038
# Legend:
# Test in all cases: split reporter
# [1] = molecular target: T1, TOM20-2 (BiFC construct) (Arabidopsis thaliana) (UniProt P82873)
# T1 sequence: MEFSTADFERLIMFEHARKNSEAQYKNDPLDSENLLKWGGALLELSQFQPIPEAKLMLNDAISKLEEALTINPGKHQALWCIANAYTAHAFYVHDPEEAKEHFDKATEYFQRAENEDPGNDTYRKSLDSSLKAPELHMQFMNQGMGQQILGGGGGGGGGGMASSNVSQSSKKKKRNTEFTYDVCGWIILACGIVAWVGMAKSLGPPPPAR
# [2] = molecular target: T2, PEX11D (BiFC construct) (Arabidopsis thaliana) (UniProt O80845)
# T2 sequence: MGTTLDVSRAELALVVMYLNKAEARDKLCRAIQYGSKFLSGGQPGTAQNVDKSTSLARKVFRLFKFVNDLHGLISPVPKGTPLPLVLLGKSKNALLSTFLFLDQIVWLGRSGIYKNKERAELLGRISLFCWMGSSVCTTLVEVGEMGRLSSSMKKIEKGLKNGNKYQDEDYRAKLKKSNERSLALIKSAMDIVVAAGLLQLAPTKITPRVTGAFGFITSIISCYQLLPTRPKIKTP
# [3] = molecular target: T3, PEX19-1 (BiFC construct) (Arabidopsis thaliana) (UniProt Q9SRQ3)
# T3 sequence: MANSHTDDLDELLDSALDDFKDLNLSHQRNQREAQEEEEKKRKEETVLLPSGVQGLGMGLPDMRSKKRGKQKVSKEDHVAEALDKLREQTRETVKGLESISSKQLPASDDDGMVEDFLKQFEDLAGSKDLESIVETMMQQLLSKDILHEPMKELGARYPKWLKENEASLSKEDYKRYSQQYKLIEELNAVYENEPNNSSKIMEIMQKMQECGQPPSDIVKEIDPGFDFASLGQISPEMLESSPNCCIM
binding [1],binding [2],binding [3],Substance
binds weakly,binds,no binding,cYFP-NAC4 (Arabidopsis thaliana)
–,binds,no binding,cYFP-RPL11 (Arabidopsis thaliana)

# No constants are given. Whether binding was seen depends on the method and setting. In cells and extracts the contact can be indirect. For some assays here: A result given as binding can be weak or reduced; the word gives no strength.
